Values of other authors, collected in US5981219A, “DNA molecules which code for a plastid 2-oxoglutarate/malate translocator” (Hoechst Schering Agrevo GmbH, priority 1919, dated 1999).
At least one compound was matched to its structure with a doubt left.

System: purified 2-oxoglutarate/malate translocator protein
Details: liposomes preloaded with the indicated dicarboxylate; cited from earlier work

N[C@@H](CC(=O)O)C(=O)O [Aspartate]
transport activity, percentage of activity measured with malate-preloaded liposomes: 24%
